We go through one molecule from patent CN108948200A.

Sequences of proteins named here, by UniProt entry; tags and fusion partners are left off. Residues count along the entry.
UniProt P07333, residues 20-512: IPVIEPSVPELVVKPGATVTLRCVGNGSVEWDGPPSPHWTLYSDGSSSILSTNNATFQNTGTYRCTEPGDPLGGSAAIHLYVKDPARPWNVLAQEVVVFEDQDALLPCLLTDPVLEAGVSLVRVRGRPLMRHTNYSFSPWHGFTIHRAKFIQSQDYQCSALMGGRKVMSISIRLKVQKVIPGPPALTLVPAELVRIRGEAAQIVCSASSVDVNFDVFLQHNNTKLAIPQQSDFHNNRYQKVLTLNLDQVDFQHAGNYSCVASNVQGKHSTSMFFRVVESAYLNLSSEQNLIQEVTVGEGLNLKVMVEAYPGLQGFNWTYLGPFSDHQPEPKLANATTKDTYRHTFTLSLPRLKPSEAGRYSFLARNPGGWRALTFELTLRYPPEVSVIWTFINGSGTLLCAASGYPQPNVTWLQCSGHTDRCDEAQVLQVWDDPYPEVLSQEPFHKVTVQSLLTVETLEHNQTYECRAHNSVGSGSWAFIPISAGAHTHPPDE

In test [1] the target is 重组人CSF1R带his标签的蛋白 (human) (UniProt P07333). Put plainly: ELISA of hybridoma supernatant on coated human CSF1R-his.
In a further test the target is 生物素标记人CSF1R Fc蛋白 (human) (UniProt P07333). Put plainly: capture ELISA with biotinylated human CSF1R Fc and flow cytometry on 293F cells over-expressing human CSF1R (Table 2, not shown).

These are yes or no findings as the source states them, for the method shown. Some entries that bind do so weakly or less than the wild type.

B1: 2E10 抗人CSF-1R小鼠单克隆抗体 (antibody, V domains shown)
VH: DVQLVDSGGGLVQPGGSRKLSCAASGFTFSSFGMHWVRQAPEKGLEWVAYISSGSNTIYYADTVKGRFTISRDNPKNTLFLQMTSLRSEDTAIYYCARWYGNYNYYAMDYWGQGTSVTVSS
VL: DIQMTQSPASLSASVGETVTITCGASENIYGTLNWYQRKQGKSPQLLIYGATNLADGLSSRFSGSGSGRQYSLKISSLHPDDIATYYCQNVLGIPFTFGSGTKLEIK
For the molecule B1, the binding result (in test [1]; with 生物素标记人CSF1R Fc蛋白 (human)) was “binds” each time.
